Test results from PubChem BioAssay AID595 (National Center for Advancing Translational Sciences (NCATS), 2007).
Among all 71,000 compounds or so, about 310 (0.44%) were called active. Inconclusive means that the source gave no clear call. Such entries were picked first, then a sample of the others. Calls come from the whole dose curve; as a rule, active = well fitted curve in either direction with a large enough effect; inconclusive = small, poorly fitted or top-dose-only effect, or another doubt; inactive = flat fitted curve, though single readings scatter. Potencies beside an inconclusive call are fits to weak or partial responses and may not hold up.
% is set by controls: 0 for no effect and ±100 for the full control effect; potency is the fitted concentration of half-maximal effect.

These compounds were tested on Hsp90 C-terminal peptide / TPR2A (Hop) interaction, human (assay: qHTS Assay for Disrupters of an Hsp90 Co-Chaperone Interaction). Conditions: AlphaScreen TPR2A-His6 binding biotin-Hsp90 C-terminal peptide; activity change, negative = inhibition: at 57 µM (top of the series) unless noted.
With COC(=O)c1cn(CCOc2ccccc2)c2ccccc12 the Potency was active: 25.1 µM [activator]. With COC(=O)Cc1cc(=O)[nH]c(Nc2nc3ccccc3o2)n1 the activity change, negative = inhibition was inactive: -6.89% [at 11 µM]. CCOc1ccc(C(=O)NCC2CCCO2)cc1 (configuration not stated) was tested, and the activity change, negative = inhibition was “inactive”. In the case of COc1cccc(NS(=O)(=O)c2ccc3[nH]cc(C(=O)NC4CC4)c(=O)c3c2)c1, the activity change, negative = inhibition is reported as inconclusive: 35.6%. With O=C1c2cc([N+](=O)[O-])ccc2-c2ccc3c4ccc5c6c(ccc(c7ccc1c2c73)c64)C(=O)c1cc([N+](=O)[O-])ccc1-5 the Potency was inconclusive: 3.16 µM [inhibitor, partial curve]. With CCCCC[C@H](O)CCCC(=O)O the activity change, negative = inhibition was “inactive”. In the case of COc1ccc(OC)c(C2C3CN(C(C)C)CC=C3C(C#N)=C(N)C2(C#N)C#N)c1 (configuration not stated), the activity change, negative = inhibition is reported as inconclusive: -30.3%. Cn1c(=O)c(-c2ccc(Cl)cc2)nc2cnc(N3CCOCC3)nc21 was tested, and the activity change, negative = inhibition was “inactive”. In the case of O=C(O)c1ccc(-c2ccccc2Cl)o1, the activity change, negative = inhibition is reported as “inactive”. CCC/C=C(\CCC)C(NC(=O)OCC(C)C)c1ccc(C(=O)OC)cc1 (configuration not stated) was tested, and the activity change, negative = inhibition was inconclusive: 292%. In the case of O=C(NCCN1CCN(c2ccccc2)CC1)c1cccc(Br)c1, the activity change, negative = inhibition is reported as “inactive”. In the case of CC(=O)N1CCC2(CCCN(Cc3nccs3)C2)CC1, the activity change, negative = inhibition is reported as “inactive”. For CC(=O)n1nc(-c2ccco2)nc1N, the Potency was inconclusive: 39.8 µM [inhibitor, single point]. With Cc1csc(NC(=O)CSc2nnc(-c3ccccn3)n2-c2ccc(C)c(C)c2)n1 the Potency was inconclusive: 25.1 µM [inhibitor, partial curve]. In the case of O=C(NCc1cccnc1)c1ccc(COc2ccccc2Br)o1, the activity change, negative = inhibition is reported as inconclusive: 44%. COC(=O)C1(C)NC(c2cccs2)C2C(=O)N(c3ccc(F)cc3)C(=O)C21 (configuration not stated) was tested, and the activity change, negative = inhibition was inconclusive: 47.4%. O=C(CCN1C(=O)C2C3C=CC(C3)C2C1=O)NC1CCCc2ccccc21 (configuration not stated) was tested, and the activity change, negative = inhibition was inconclusive: 57.3%. For CCCn1c(Nc2nc3ccccc3n2C)nc2ccccc21, the Potency was inconclusive: 31.6 µM [inhibitor, single point]. With COc1ccc(CCNc2oc(-c3ccc(OC)c(OC)c3)nc2C#N)cc1 the Potency was inconclusive: 25.1 µM [inhibitor, single point]. For CCc1ccc2[nH]c(=O)c(CN(CCCN3CCOCC3)C(=O)Nc3ccc(F)cc3)cc2c1, the activity change, negative = inhibition was inconclusive: 48.3%. With CCSc1ncc(C#N)c(=O)[nH]1 the activity change, negative = inhibition was inconclusive: 46.5%. O=C(COc1ccc(S(=O)(=O)NC2CCCCC2)cc1Cl)NCC1CCCO1 (configuration not stated) was tested, and the activity change, negative = inhibition was “inactive”. For COCCN1Cc2cccc(C(=O)Nc3cc(OC)ccc3OC)c2C1=O, the activity change, negative = inhibition was inconclusive: 37.1%. With CC(=O)NCC(=O)NC(C(=O)Nc1ccc2c(c1)OCCO2)c1ccccc1 (configuration not stated) the activity change, negative = inhibition was inconclusive: 47.1%. With Cc1[nH]c2ccccc2c1C(=O)COC(=O)C1CC(=O)N(Cc2ccco2)C1 (configuration not stated) the activity change, negative = inhibition was inconclusive: 29.1%. In the case of O=C1NC(O)=NC1(c1ccccc1)c1ccccc1, the activity change, negative = inhibition is reported as inconclusive: 68.2%. In the case of O=C(Nc1cccc2ccccc12)N1CCN(Cc2ccccc2)CC1, the activity change, negative = inhibition is reported as inconclusive: 29.5%. CC(C)C(=O)Cc1ccc2ccccc2n1 was tested, and the activity change, negative = inhibition was inactive: 3.72% [at 11 µM]. COc1ccc(C2C(C(C)=O)=C(C)N=c3s/c(=C\c4cc(C)n(C)c4C)c(=O)n32)c(OC)c1 (configuration not stated) was tested, and the Potency was inconclusive: 25.1 µM [inhibitor, single point]. Clc1ccc(-c2nc(NCCN3CCOCC3)c3ccccc3n2)cc1 was tested, and the activity change, negative = inhibition was “inactive”. Cc1ccc(NC(=O)c2ccc(S(=O)(=O)NCC3CCCO3)cc2)cc1 (configuration not stated) was tested, and the activity change, negative = inhibition was inconclusive: 51.4%. In the case of O=S(=O)(O)c1cc(N=Nc2cccc3ccccc23)c(O)c2ncccc12, the Potency is reported as inconclusive: 3.16 µM [inhibitor, partial curve]. For COc1ccc(C(=O)N2CCC(C(=O)NCc3ccccn3)CC2)cc1, the Potency was inconclusive: 31.6 µM [inhibitor, single point]. With Cc1ccc(S(=O)(=O)N2CCC(C(=O)OC(C)C(=O)NCc3ccc4c(c3)OCO4)CC2)cc1 (configuration not stated) the activity change, negative = inhibition was inconclusive: 46.1%. With COC(=O)C1(C)C=C2C(=C(c3ccccc3)C(=O)C2C)CN1 (configuration not stated) the activity change, negative = inhibition was “inactive”. In the case of Cc1ccc2c(c1)c1ncnc(N3CCc4ccccc4C3)c1n2C, the Potency is reported as inconclusive: 25.1 µM [activator, single point]. For N=c1c2c(-c3ccccc3)c(-c3ccccc3)oc2ncn1CCN1CCOCC1, the activity change, negative = inhibition was inconclusive: 27.8%. With Cc1oc(-c2ccc(Cl)cc2)cc1-c1nn2c(-c3ccoc3C)nnc2s1 the activity change, negative = inhibition was inconclusive: 12.7%. In the case of CCOc1ccc(OCC(=O)c2c(O)c3ccccc3oc2=O)cc1, the activity change, negative = inhibition is reported as inconclusive: 37.5%. For CCOC(=O)Cn1c(-c2nonc2NC(=O)c2ccccc2F)nc2ccccc21, the activity change, negative = inhibition was inconclusive: 51.3%. In the case of CCC1C(=O)n2nc(-c3ccccc3)cc2N=C1C (configuration not stated), the activity change, negative = inhibition is reported as inconclusive: 49.9%. In the case of COc1ccc(Cl)cc1N(CC(=O)Nc1ccc2c(c1)OCCO2)S(C)(=O)=O, the activity change, negative = inhibition is reported as inconclusive: 37.9%. In the case of CCCOc1ccc2c3c(c(=O)oc2c1)CCCC3, the Potency is reported as inconclusive: 25.1 µM [activator, single point]. In the case of Cc1ncsc1CCSc1n[nH]c(=O)n1-c1ccccc1, the activity change, negative = inhibition is reported as inconclusive: 39.2%. In the case of Brc1ccc(Oc2nnnn2-c2ccccc2)cc1, the Potency is reported as inconclusive: 25.1 µM [activator, single point]. In the case of CCOc1cccc(NC(=O)C2CC(=O)N(C)C(=Nc3cccc(F)c3)S2)c1 (configuration not stated), the activity change, negative = inhibition is reported as inconclusive: 89.5%. N#Cc1nc(COc2ccc(-c3ccccc3)cc2)oc1NCc1cccnc1 was tested, and the Potency was inconclusive: 31.6 µM [inhibitor, single point]. In the case of CCCCCn1c(CN(C)Cc2ccccc2)nc2c1c(=O)n(C)c(=O)n2C, the activity change, negative = inhibition is reported as “inactive”. With Cc1ccc(C(=O)C2=C(O)C(=O)N(CCCN(C)C)C23C(=O)N(C)c2ccccc23)o1 (configuration not stated) the activity change, negative = inhibition was inconclusive: 43.2%. With CCSc1nc(-c2ccc(OC)cc2)ccc1C#N the Potency was active: 25.1 µM [activator]. With Cc1nc(N)sc1-c1csc(Nc2ccccc2)n1 the Potency was inconclusive: 31.6 µM [inhibitor, single point]. In the case of CCCCCN(C(=O)NC(=O)Nc1ccccc1OC)S(C)(=O)=O, the activity change, negative = inhibition is reported as inconclusive: 47.7%.
